Paper doi:10.1101/2024.03.26.586525 (bioRxiv, 2024)
These are yes or no findings as the source states them, for the method shown. Some entries that bind do so weakly or less than the wild type. For some of these results: Where a sequence is shown, tags or fusion partners need not be part of it. Blank lines part the entries; values can stand above or below the binder they belong to.

Assays:
[1] = biological target: Acs1 C-terminally tagged with GFP (Acs1-GFP) (S. cerevisiae) (UniProt Q01574); assay: cryo-electron tomography
[2] = biological target: acetyl-coenzyme A synthetase 1 (Acs1) (S. cerevisiae (endogenous in SK1 cells)) (UniProt Q01574); assay: cryo-EM structure
[3] = biological target: acetyl-coenzyme A synthetase 1 (Acs1) (S. cerevisiae (endogenous in SK1 cells)) (UniProt Q01574); assay: cryo-electron tomography
[4] = biological target: acetyl-coenzyme A synthetase 1 (Acs1) (S. cerevisiae (endogenous in SK1 cells)) (UniProt Q01574); assay: cryo-electron tomography; remark: listed apart in the source
[5] = biological target: Acs1 wild-type control (ACS1^WT, reconstituted acs1Δ strain) (S. cerevisiae) (UniProt Q01574); assay: cryo-electron tomography
[6] = biological target: Acs1 K675A (acs1^K675A) (S. cerevisiae) (UniProt Q01574); assay: cryo-electron tomography
[7] = biological target: aldehyde dehydrogenase 4 (Ald4) (S. cerevisiae (endogenous in SK1 cells)) (UniProt P46367); assay: cryo-electron tomography
[8] = biological target: aldehyde dehydrogenase 4 (Ald4) (S. cerevisiae (endogenous in SK1 cells)) (UniProt P46367); assay: cryo-EM structure
[9] = biological target: aldehyde dehydrogenase 4 (Ald4) (S. cerevisiae (endogenous in SK1 cells)) (UniProt P46367); assay: cryo-electron tomography; remark: listed apart in the source
[10] = biological target: Ald4 interface mutant (ald4^int) (S. cerevisiae) (UniProt P46367); assay: cryo-electron tomography

- binding [1]: binds
B1: Acs1 C-terminally tagged with GFP (Acs1-GFP) (enzyme, UniProt Q01574 1-713)
chain: MSPSAVQSSKLEEQSSEIDKLKAKMSQSAATAQQKKEHEYEHLTSVKIVPQRPISDRLQPAIATHYSPHLDGLQDYQRLHKESIEDPAKFFGSKATQFLNWSKPFDKVFIPDPKTGRPSFQNNAWFLNGQLNACYNCVDRHALKTPNKKAIIFEGDEPGQGYSITYKELLEEVCQVAQVLTYSMGVRKGDTVAVYMPMVPEAIITLLAISRIGAIHSVVFAGFSSNSLRDRINDGDSKVVITTDESNRGGKVIETKRIVDDALRETPGVRHVLVYRKTNNPSVAFHAPRDLDWATEKKKYKTYYPCTPVDSEDPLFLLYTSGSTGAPKGVQHSTAGYLLGALLTMRYTFDTHQEDVFFTAGDIGWITGHTYVVYGPLLYGCATLVFEGTPAYPNYSRYWDIIDEHKVTQFYVAPTALRLLKRAGDSYIENHSLKSLRCLGSVGEPIAAEVWEWYSEKIGKNEIPIVDTYWQTESGSHLVTPLAGGVTPMKPGSASFPFFGIDAVVLDPNTGEELNTSHAEGVLAVKAAWPSFARTIWKNHDRYLDTYLNPYPGYYFTGDGAAKDKDGYIWILGRVDDVVNVSGHRLSTAEIEAAIIEDPIVAECAVVGFNDDLTGQAVAAFVVLKNKSSWSTATDDELQDIKKHLVFTVRKDIGPFAAPKLIILVDDLPKTRSGKIMRRILRKILAGESDQLGDVSTLSNPGIVRHLIDSVKL

- binding [2]: binds
- binding [3]: binds
- binding [4]: binds
B2: acetyl-coenzyme A synthetase 1 (Acs1) (enzyme, S. cerevisiae (endogenous in SK1 cells), UniProt Q01574 1-713, looked up)
chain: MSPSAVQSSKLEEQSSEIDKLKAKMSQSAATAQQKKEHEYEHLTSVKIVPQRPISDRLQPAIATHYSPHLDGLQDYQRLHKESIEDPAKFFGSKATQFLNWSKPFDKVFIPDPKTGRPSFQNNAWFLNGQLNACYNCVDRHALKTPNKKAIIFEGDEPGQGYSITYKELLEEVCQVAQVLTYSMGVRKGDTVAVYMPMVPEAIITLLAISRIGAIHSVVFAGFSSNSLRDRINDGDSKVVITTDESNRGGKVIETKRIVDDALRETPGVRHVLVYRKTNNPSVAFHAPRDLDWATEKKKYKTYYPCTPVDSEDPLFLLYTSGSTGAPKGVQHSTAGYLLGALLTMRYTFDTHQEDVFFTAGDIGWITGHTYVVYGPLLYGCATLVFEGTPAYPNYSRYWDIIDEHKVTQFYVAPTALRLLKRAGDSYIENHSLKSLRCLGSVGEPIAAEVWEWYSEKIGKNEIPIVDTYWQTESGSHLVTPLAGGVTPMKPGSASFPFFGIDAVVLDPNTGEELNTSHAEGVLAVKAAWPSFARTIWKNHDRYLDTYLNPYPGYYFTGDGAAKDKDGYIWILGRVDDVVNVSGHRLSTAEIEAAIIEDPIVAECAVVGFNDDLTGQAVAAFVVLKNKSSWSTATDDELQDIKKHLVFTVRKDIGPFAAPKLIILVDDLPKTRSGKIMRRILRKILAGESDQLGDVSTLSNPGIVRHLIDSVKL

- binding [5]: binds
B3: Acs1 wild-type control (ACS1^WT, reconstituted acs1Δ strain) (enzyme, UniProt Q01574 1-713)
chain: MSPSAVQSSKLEEQSSEIDKLKAKMSQSAATAQQKKEHEYEHLTSVKIVPQRPISDRLQPAIATHYSPHLDGLQDYQRLHKESIEDPAKFFGSKATQFLNWSKPFDKVFIPDPKTGRPSFQNNAWFLNGQLNACYNCVDRHALKTPNKKAIIFEGDEPGQGYSITYKELLEEVCQVAQVLTYSMGVRKGDTVAVYMPMVPEAIITLLAISRIGAIHSVVFAGFSSNSLRDRINDGDSKVVITTDESNRGGKVIETKRIVDDALRETPGVRHVLVYRKTNNPSVAFHAPRDLDWATEKKKYKTYYPCTPVDSEDPLFLLYTSGSTGAPKGVQHSTAGYLLGALLTMRYTFDTHQEDVFFTAGDIGWITGHTYVVYGPLLYGCATLVFEGTPAYPNYSRYWDIIDEHKVTQFYVAPTALRLLKRAGDSYIENHSLKSLRCLGSVGEPIAAEVWEWYSEKIGKNEIPIVDTYWQTESGSHLVTPLAGGVTPMKPGSASFPFFGIDAVVLDPNTGEELNTSHAEGVLAVKAAWPSFARTIWKNHDRYLDTYLNPYPGYYFTGDGAAKDKDGYIWILGRVDDVVNVSGHRLSTAEIEAAIIEDPIVAECAVVGFNDDLTGQAVAAFVVLKNKSSWSTATDDELQDIKKHLVFTVRKDIGPFAAPKLIILVDDLPKTRSGKIMRRILRKILAGESDQLGDVSTLSNPGIVRHLIDSVKL

- binding [6]: no binding
B4: Acs1 K675A (acs1^K675A) (enzyme, UniProt Q01574 1-713)
chain: MSPSAVQSSKLEEQSSEIDKLKAKMSQSAATAQQKKEHEYEHLTSVKIVPQRPISDRLQPAIATHYSPHLDGLQDYQRLHKESIEDPAKFFGSKATQFLNWSKPFDKVFIPDPKTGRPSFQNNAWFLNGQLNACYNCVDRHALKTPNKKAIIFEGDEPGQGYSITYKELLEEVCQVAQVLTYSMGVRKGDTVAVYMPMVPEAIITLLAISRIGAIHSVVFAGFSSNSLRDRINDGDSKVVITTDESNRGGKVIETKRIVDDALRETPGVRHVLVYRKTNNPSVAFHAPRDLDWATEKKKYKTYYPCTPVDSEDPLFLLYTSGSTGAPKGVQHSTAGYLLGALLTMRYTFDTHQEDVFFTAGDIGWITGHTYVVYGPLLYGCATLVFEGTPAYPNYSRYWDIIDEHKVTQFYVAPTALRLLKRAGDSYIENHSLKSLRCLGSVGEPIAAEVWEWYSEKIGKNEIPIVDTYWQTESGSHLVTPLAGGVTPMKPGSASFPFFGIDAVVLDPNTGEELNTSHAEGVLAVKAAWPSFARTIWKNHDRYLDTYLNPYPGYYFTGDGAAKDKDGYIWILGRVDDVVNVSGHRLSTAEIEAAIIEDPIVAECAVVGFNDDLTGQAVAAFVVLKNKSSWSTATDDELQDIKKHLVFTVRKDIGPFAAPKLIILVDDLPKTRSGAIMRRILRKILAGESDQLGDVSTLSNPGIVRHLIDSVKL

- binding [7]: binds
- binding [8]: binds
- binding [9]: binds
B5: aldehyde dehydrogenase 4 (Ald4) (enzyme, S. cerevisiae (endogenous in SK1 cells), UniProt P46367 25-519, looked up)
chain: SHLPMTVPIKLPNGLEYEQPTGLFINNKFVPSKQNKTFEVINPSTEEEICHIYEGREDDVEEAVQAADRAFSNGSWNGIDPIDRGKALYRLAELIEQDKDVIASIETLDNGKAISSSRGDVDLVINYLKSSAGFADKIDGRMIDTGRTHFSYTKRQPLGVCGQIIPWNFPLLMWAWKIAPALVTGNTVVLKTAESTPLSALYVSKYIPQAGIPPGVINIVSGFGKIVGEAITNHPKIKKVAFTGSTATGRHIYQSAAAGLKKVTLELGGKSPNIVFADAELKKAVQNIILGIYYNSGEVCCAGSRVYVEESIYDKFIEEFKAASESIKVGDPFDESTFQGAQTSQMQLNKILKYVDIGKNEGATLITGGERLGSKGYFIKPTVFGDVKEDMRIVKEEIFGPVVTVTKFKSADEVINMANDSEYGLAAGIHTSNINTALKVADRVNAGTVWINTYNDFHHAVPFGGFNASGLGREMSVDALQNYLQVKAVRAKLDE

- binding [10]: no binding
B6: Ald4 interface mutant (ald4^int) (enzyme, UniProt P46367 25-519)
chain: SHLPMTVPIKLPNGLEYEQPTGLFINNKFVPSKQNETFEVINPSTEEEICHIYEGREDDVEEAVQAADRAFSNGSWNGIDPIDRGKALYRLAELIEQDKDVIASIETLDNGKAISSSRGDVDLVINYLKSSAGFADKIDGRMIDTGRTHFSYTKRQPLGVCGQIIPWNFPLLMWAWKIAPALVTGNTVVLKTAESTPLSALYVSKYIPQAGIPPGVINIVSGFGEAVGEAITNHPKIKKVAFTGSTATGRHIYQSAAAGLKKVTLELGGKSPNIVFADAELKKAVQNIILGIYYNSGEVCCAGSRVYVEESIYDKFIEEFKAASESIKVGDPFDESTFQGAQTSAMQLAKILAYVAIGKAEGATLITGGERLGSKGYFIKPTVFGDVKEDMRIVKEEIFGPVVTVTKFKSADEVINMANDSEYGLAAGIHTSNINTALKVADRVNAGTVWINTYNDFHHAVPFGGFNASGLGREMSVDALQNYLQVKAVRAKLDE
